Measurements published in the supplement of paper PMC12819154, “High-throughput peptide-centric local stability assay extends protein–ligand identification to membrane proteins, tissues and bacteria” (Nature Structural & Molecular Biology, 2025).
The list shows a part of the results. Small differences around the control level are noise.

Protein sequences, listed by entry. Tags and fused reporters are not part of them. Lines headed by an entry give the natural chain unless they say otherwise; changes in a name come on top.
UniProt Q8WZA9: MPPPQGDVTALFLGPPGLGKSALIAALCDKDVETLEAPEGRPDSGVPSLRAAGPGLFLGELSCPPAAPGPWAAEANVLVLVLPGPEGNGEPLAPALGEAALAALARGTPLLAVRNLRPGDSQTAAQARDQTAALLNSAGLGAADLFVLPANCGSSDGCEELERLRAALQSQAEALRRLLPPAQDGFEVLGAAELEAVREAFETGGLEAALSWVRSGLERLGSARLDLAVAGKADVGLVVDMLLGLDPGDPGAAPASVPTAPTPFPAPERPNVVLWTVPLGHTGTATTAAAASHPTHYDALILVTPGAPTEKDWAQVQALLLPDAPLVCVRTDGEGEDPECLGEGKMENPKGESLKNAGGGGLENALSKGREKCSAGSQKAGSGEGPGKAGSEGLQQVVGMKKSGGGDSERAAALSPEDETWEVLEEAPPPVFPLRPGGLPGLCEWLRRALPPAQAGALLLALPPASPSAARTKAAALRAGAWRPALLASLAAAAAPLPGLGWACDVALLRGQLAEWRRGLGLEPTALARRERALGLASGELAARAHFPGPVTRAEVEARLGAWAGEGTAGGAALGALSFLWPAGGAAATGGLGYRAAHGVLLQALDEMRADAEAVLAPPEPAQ
UniProt Q8TBZ8: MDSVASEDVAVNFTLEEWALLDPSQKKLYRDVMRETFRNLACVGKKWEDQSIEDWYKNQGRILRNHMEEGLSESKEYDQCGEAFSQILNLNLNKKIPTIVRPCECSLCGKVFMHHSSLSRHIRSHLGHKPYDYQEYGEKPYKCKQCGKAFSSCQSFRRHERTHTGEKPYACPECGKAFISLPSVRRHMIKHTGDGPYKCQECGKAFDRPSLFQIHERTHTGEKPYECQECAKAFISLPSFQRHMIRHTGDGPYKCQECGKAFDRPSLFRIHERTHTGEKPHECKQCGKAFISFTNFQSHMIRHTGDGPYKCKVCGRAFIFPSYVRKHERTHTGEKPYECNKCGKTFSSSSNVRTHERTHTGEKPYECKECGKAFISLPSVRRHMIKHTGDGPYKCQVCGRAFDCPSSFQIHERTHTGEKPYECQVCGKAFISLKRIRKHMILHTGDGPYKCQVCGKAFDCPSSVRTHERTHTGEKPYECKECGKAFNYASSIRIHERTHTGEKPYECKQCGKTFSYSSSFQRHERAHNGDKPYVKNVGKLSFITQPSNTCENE
UniProt Q92618: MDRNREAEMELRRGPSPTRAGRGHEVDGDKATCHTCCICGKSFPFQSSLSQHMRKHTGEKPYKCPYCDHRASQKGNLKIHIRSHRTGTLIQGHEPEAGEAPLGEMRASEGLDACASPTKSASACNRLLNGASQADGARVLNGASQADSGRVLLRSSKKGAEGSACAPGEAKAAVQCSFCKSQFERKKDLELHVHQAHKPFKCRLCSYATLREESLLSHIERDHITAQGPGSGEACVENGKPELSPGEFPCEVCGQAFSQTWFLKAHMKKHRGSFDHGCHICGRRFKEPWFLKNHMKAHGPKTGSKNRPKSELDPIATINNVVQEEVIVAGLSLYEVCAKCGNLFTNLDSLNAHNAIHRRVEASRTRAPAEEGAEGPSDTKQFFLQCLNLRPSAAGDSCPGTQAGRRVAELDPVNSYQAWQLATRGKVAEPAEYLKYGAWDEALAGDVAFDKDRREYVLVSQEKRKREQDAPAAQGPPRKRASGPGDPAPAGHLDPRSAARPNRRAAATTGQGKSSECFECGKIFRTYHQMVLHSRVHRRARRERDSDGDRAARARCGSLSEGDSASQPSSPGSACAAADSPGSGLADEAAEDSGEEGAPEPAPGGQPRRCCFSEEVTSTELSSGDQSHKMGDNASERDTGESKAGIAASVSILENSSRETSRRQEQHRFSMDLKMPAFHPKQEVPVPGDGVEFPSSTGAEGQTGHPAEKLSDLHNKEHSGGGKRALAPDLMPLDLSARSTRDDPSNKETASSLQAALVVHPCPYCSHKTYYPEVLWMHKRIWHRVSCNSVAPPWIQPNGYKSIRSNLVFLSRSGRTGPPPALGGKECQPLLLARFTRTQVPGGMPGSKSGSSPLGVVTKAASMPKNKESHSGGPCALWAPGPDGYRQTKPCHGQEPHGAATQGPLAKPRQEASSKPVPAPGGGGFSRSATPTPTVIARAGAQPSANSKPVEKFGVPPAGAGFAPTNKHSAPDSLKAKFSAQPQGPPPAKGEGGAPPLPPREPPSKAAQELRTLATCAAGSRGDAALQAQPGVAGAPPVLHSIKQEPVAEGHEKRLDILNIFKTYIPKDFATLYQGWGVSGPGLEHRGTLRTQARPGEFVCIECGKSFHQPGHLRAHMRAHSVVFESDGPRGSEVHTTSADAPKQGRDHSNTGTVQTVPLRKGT
UniProt Q92820: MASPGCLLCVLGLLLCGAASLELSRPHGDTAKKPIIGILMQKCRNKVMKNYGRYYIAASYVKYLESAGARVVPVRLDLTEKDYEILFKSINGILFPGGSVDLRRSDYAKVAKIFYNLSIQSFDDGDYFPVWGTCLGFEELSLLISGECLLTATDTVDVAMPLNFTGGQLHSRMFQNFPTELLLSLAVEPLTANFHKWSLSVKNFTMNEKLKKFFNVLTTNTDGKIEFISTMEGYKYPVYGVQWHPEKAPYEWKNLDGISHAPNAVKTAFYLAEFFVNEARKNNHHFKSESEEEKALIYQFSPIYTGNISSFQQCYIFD
UniProt Q8WVY7: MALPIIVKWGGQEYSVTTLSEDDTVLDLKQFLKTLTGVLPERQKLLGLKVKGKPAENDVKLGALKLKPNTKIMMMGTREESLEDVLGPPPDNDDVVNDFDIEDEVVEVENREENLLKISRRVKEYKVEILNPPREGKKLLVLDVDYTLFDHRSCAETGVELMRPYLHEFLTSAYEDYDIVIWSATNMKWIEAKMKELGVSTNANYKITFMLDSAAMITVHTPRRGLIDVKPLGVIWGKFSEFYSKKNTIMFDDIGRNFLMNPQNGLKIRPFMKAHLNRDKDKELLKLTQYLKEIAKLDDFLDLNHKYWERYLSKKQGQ
UniProt Q8TDZ2: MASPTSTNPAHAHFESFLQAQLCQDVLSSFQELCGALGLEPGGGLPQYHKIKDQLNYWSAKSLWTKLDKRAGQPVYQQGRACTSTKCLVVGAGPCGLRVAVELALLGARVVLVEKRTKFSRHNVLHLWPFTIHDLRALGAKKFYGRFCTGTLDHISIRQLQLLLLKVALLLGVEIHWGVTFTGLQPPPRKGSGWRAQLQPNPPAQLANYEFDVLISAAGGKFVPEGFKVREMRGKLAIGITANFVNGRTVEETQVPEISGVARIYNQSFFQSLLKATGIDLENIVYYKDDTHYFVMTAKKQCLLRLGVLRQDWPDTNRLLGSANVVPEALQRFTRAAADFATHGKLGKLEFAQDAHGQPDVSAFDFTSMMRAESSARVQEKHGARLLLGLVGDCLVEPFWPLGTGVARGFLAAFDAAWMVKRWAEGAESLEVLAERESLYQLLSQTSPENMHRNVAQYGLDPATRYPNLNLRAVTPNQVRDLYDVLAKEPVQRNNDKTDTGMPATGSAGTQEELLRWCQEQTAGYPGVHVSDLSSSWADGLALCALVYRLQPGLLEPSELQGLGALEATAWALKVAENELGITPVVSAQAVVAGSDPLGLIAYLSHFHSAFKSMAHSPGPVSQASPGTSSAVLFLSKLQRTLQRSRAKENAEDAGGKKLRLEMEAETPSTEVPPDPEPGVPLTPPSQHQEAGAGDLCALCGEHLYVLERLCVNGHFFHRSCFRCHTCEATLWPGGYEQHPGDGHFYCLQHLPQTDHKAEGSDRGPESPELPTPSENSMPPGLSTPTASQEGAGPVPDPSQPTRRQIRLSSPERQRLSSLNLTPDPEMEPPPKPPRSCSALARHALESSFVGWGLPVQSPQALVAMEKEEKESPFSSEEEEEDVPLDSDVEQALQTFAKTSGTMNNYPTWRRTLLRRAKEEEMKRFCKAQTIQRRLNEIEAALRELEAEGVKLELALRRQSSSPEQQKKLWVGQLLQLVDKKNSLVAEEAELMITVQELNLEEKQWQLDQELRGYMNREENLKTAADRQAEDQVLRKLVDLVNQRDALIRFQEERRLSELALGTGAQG
UniProt Q8TBY9: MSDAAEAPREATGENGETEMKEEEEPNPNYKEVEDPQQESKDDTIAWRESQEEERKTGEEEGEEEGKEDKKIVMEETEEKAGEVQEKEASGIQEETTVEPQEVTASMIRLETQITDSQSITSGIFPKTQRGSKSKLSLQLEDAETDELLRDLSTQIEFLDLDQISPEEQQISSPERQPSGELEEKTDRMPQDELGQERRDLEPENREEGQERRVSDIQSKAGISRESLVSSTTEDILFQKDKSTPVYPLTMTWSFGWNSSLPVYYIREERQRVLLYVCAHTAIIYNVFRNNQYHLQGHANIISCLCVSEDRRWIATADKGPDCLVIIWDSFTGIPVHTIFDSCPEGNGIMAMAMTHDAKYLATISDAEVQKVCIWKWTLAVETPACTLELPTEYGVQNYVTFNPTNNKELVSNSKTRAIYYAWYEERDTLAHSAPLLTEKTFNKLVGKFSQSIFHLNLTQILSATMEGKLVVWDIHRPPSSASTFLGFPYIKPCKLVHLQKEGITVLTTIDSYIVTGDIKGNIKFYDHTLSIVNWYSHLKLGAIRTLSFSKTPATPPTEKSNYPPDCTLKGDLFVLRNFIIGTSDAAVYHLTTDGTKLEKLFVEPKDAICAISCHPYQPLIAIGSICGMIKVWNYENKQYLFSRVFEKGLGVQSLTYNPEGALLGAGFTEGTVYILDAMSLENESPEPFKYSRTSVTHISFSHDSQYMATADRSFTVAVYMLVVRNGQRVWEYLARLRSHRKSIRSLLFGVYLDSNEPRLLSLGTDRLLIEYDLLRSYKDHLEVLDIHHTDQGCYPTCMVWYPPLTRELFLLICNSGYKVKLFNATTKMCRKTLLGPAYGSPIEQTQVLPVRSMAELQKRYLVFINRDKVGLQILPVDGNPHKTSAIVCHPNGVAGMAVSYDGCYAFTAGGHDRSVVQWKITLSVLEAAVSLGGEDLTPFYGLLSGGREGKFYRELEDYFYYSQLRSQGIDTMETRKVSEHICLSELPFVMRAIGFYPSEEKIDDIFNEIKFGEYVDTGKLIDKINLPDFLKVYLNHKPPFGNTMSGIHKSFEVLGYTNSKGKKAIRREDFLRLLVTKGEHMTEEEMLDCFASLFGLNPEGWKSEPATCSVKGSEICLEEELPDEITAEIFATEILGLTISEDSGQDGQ
UniProt Q8TEW0: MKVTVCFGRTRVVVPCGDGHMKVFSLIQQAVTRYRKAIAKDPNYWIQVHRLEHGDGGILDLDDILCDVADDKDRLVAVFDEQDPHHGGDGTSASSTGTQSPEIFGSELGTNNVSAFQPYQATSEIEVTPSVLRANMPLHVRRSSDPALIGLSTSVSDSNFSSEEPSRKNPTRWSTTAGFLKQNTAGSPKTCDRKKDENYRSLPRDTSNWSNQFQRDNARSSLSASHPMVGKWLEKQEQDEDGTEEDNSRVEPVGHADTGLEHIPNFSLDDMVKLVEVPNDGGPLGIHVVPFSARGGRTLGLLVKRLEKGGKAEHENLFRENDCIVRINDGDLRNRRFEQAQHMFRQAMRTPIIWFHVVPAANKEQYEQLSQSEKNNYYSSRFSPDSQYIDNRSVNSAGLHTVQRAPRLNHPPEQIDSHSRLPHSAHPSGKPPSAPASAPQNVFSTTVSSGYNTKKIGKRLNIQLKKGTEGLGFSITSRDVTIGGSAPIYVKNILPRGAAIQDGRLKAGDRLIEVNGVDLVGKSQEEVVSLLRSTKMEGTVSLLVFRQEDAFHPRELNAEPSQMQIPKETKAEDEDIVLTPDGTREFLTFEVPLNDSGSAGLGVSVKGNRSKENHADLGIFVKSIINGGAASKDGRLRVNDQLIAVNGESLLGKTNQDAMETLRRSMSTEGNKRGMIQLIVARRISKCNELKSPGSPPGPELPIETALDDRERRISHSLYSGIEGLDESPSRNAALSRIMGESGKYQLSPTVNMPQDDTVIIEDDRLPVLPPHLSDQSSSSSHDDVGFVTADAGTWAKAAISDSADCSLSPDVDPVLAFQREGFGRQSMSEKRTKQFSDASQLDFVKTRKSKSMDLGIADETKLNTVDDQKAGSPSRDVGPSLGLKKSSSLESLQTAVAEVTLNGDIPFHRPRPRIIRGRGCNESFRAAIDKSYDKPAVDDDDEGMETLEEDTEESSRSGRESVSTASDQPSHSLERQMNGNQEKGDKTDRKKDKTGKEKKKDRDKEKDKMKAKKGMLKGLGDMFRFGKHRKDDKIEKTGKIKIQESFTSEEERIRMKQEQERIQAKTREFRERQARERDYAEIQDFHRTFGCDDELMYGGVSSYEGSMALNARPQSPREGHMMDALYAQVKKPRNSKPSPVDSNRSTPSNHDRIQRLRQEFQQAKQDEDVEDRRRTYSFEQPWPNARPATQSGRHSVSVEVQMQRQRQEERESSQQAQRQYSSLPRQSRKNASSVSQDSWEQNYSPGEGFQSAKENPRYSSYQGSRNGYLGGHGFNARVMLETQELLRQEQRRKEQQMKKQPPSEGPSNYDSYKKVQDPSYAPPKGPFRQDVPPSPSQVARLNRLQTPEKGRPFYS

compound: CN[C@@H]1C[C@H]2O[C@@](C)([C@@H]1OC)n1c3ccccc3c3c4c(c5c6ccccc6n2c5c31)C(=O)NC4 [staurosporine]; experiment: log2 fold change of tryptic peptide abundance, ligand vs vehicle (limited proteolysis) (log2 ratio); higher = more trypsin-susceptible (destabilized); conditions: ligand concentration: 20 uM; sample: K562 cleared lysate; digestion: 4 min, 22 C (HT-PELSA RT4min, Orbitrap Astral)

Target | log2 fold change
DOT1L (peptide sequence: LSGLAAPDYTR, peptide start residue: 763) (UniProt Q8TEK3) | 0.491
UniProt Q8TBZ0 (peptide sequence: DKERQPFLVK, peptide start residue: 394) | 0.0784
UniProt Q8WVS4 (peptide sequence: CRDPDQDAR, peptide start residue: 57) | 0.86
UniProt Q8TE57 (peptide sequence: FRGRHYK, peptide start residue: 30) | 0.226
NECTIN2 (peptide sequence: YHELPTLEER, peptide start residue: 454) (UniProt Q92692) | 0.024
DENND1A (peptide sequence: DPKLREDR, peptide start residue: 480) (UniProt Q8TEH3) | 0.153
RASSF5 (peptide sequence: LSIADRPLYLR, peptide start residue: 335) (UniProt Q8WWW0) | -0.517
UniProt Q8WZA9 (peptide sequence: MENPKGESLK, peptide start residue: 346) | 0.221
USP33 (peptide sequence: SRPGSVVPTTLFQGIK, peptide start residue: 243) (UniProt Q8TEY7) | 0.169
UniProt Q8TBZ8 (peptide sequence: AFNYASSIR, peptide start residue: 485) | 0.257
ZNF516 (peptide sequence: KKDLELHVHQAHK, peptide start residue: 186) (UniProt Q92618) | -0.219
ANP32B (peptide sequence: KRETDDEGEDD, peptide start residue: 241) (UniProt Q92688) | 0.128
UniProt Q8WXD9 (peptide sequence: MTPEDLTAIGVTKPGHR, peptide start residue: 523) | 0.355
TAF4B (peptide sequence: LPAPQIVAVK, peptide start residue: 88) (UniProt Q92750) | 0.378
GGH (peptide sequence: NLDGISHAPNAVK, peptide start residue: 254) (UniProt Q92820) | -0.332
TBCK (peptide sequence: QHAQPPKPSSDSSGGR, peptide start residue: 712) (UniProt Q8TEA7) | -0.271
SNX29 (peptide sequence: QATVAMMNR, peptide start residue: 472) (UniProt Q8TEQ0) | -0.224
ARAP3 (peptide sequence: GVIPLTAIEMTR, peptide start residue: 330) (UniProt Q8WWN8) | -0.322
NOC3L (peptide sequence: LISEMCCEAVKK, peptide start residue: 376) (UniProt Q8WTT2) | -0.246
PTPMT1 (peptide sequence: AATALLEAGLAR, peptide start residue: 2) (UniProt Q8WUK0) | 0.5
UniProt Q8WX92 (peptide sequence: LLIHLHPR, peptide start residue: 507) | 0.423
MDM1 (peptide sequence: LGVSAPTIPVR, peptide start residue: 429) (UniProt Q8TC05) | 0.477
UBLCP1 (peptide sequence: KLLVLDVDYTLFDHR, peptide start residue: 138) (UniProt Q8WVY7) | 0.244
MICAL1 (peptide sequence: LWVGQLLQLVDKK, peptide start residue: 969) (UniProt Q8TDZ2) | 0.162
DYNC2LI1 (peptide sequence: PSETLWEIAK, peptide start residue: 2) (UniProt Q8TCX1) | -0.207
SMCR8 (peptide sequence: ANELASVEK, peptide start residue: 233) (UniProt Q8TEV9) | -0.381
WDR66 (peptide sequence: TPATPPTEK, peptide start residue: 552) (UniProt Q8TBY9) | -0.148
UniProt Q8TE02 (peptide sequence: LVYHDFFRDPLNWSK, peptide start residue: 80) | -0.522
PARD3 (peptide sequence: SVNSAGLHTVQR, peptide start residue: 393) (UniProt Q8TEW0) | 0.474

2 entries drawn at random from those above:
Target | log2 fold change
WDR66 (peptide sequence: TPATPPTEK, peptide start residue: 552) (UniProt Q8TBY9) | -0.148
TAF4B (peptide sequence: LPAPQIVAVK, peptide start residue: 88) (UniProt Q92750) | 0.378
